Laboratory results taken from US11103698B2, “Using alternating electric fields to increase cell membrane permeability” (The Board of Trustees of the Leland Stanford Junior …, priority 2018, dated 2021).
For at least one compound, name, drawing or mass did not settle the structure.

What was measured:
glioblastoma = conditions: TTFields plus temozolomide vs temozolomide alone; after 1 year of TTFields exposure; re-analysis of Ram et al.; cited from earlier work
U87-MG/eGFP-fLuc cells = experiment: Ethidium D uptake under TTFields; assay type: cell-based, human; conditions: 200 kHz TTFields vs no TTFields, time course; p<0.0001

Row | Structure (SMILES) | percent increase in overall survival (glioblastoma) | ethidium D uptake (U87-MG/eGFP-fLuc cells)
1 | Cn1nnc2c(C(N)=O)ncn2c1=O [Temozolomide] | 32% | –
2 | CC[n+]1c(-c2ccccc2)c2cc(N)ccc2c2ccc(N)cc21 [ethidium D, ethidium bromide] | – | significantly increased
